Measured values taken from PMC3852243.

Amino acid sequences for entries named in this document (tags omitted).
UniProt P08515, whole entry: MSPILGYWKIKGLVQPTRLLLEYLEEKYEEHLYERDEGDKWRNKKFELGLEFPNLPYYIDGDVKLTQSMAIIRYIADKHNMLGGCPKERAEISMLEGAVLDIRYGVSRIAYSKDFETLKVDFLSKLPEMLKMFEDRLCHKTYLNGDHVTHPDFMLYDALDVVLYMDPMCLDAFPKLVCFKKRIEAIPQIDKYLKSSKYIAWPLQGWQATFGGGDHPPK

Key:
Assay in all cases: EMSA
[1] = test system: GST-FruC DBD (Drosophila melanogaster); details: 5' phosphorylated; Protein in Buffer 1: 100 mM KCl, 50 mM HEPES pH 7.5, 10% glycerol, 5 mM MgCl2, 1 mM DTT; recombinant protein; protein details: N-terminal GST (pGEX-4T1)
[2] = test system: GST-FruA DBD (Drosophila melanogaster); details: 5' phosphorylated; Protein in Buffer 1: 100 mM KCl, 50 mM HEPES pH 7.5, 10% glycerol, 5 mM MgCl2, 1 mM DTT; recombinant protein; protein details: N-terminal GST (pGEX-4T1)
GST = GST (UniProt P08515); details: 5' phosphorylated; Protein in Buffer 1: 100 mM KCl, 50 mM HEPES pH 7.5, 10% glycerol, 5 mM MgCl2, 1 mM DTT; recombinant protein; protein details: GST
[3] = test system: GST-FruB DBD (Drosophila melanogaster); details: binding attributed to the common flanks present in all oligos; 5' phosphorylated; Protein in Buffer 1: 100 mM KCl, 50 mM HEPES pH 7.5, 10% glycerol, 5 mM MgCl2, 1 mM DTT; recombinant protein; protein details: N-terminal GST (pGEX-4T1)

“TCGACCTGCAGAGTAACCTGCAGG / TCGACCTGCAGGTTACTCTGCAGG [FruMA consensus oligo]”: no binding [1]; binds [2]; no binding (GST). “TCGACCTGCAGAGTAACCTGCAGG / TCGACCTGCAGGTTACTCTGCAGG [FruMA consensus oligo]”: binds [3].

“TCGACCTGCAGATAGACCTGCAGG / TCGACCTGCAGGTCTATCTGCAGG [FruMA randomized oligo]”: no binding [2].

“TCGACCTGCAGGCATCTATATCTGCAGG / TCGACCTGCAGATATAGATGCCTGCAGG [FruMC randomized oligo]”: no binding [1].

“TCGACCTGCAGTGTTACATCACTGCAGG / TCGACCTGCAGTGATGTAACACTGCAGG [FruMC consensus oligo]”: binds [1]; no binding [2].

Construct, isoform or probe ends are uncertain for at least one entry. For some assays here: A negative result means that nothing was seen under these conditions. For some assays here: At least one verdict rests on a figure or table, not on a statement of the authors.
